According to publication PMC5253655:
Where a chain is given by its changes, count along the chain named. These are yes or no findings as the source states them, for the method shown. Binding seen in cells or lysates may run through a third protein. These calls come from enrichment with a bait or labelling near it, and not all partners need be listed. A no says only that the protein was not detected with the bait. Sequences can lack the tags named with a protein.

Chains of the proteins cited; added tags and fusions are not shown.
UniProt P23330: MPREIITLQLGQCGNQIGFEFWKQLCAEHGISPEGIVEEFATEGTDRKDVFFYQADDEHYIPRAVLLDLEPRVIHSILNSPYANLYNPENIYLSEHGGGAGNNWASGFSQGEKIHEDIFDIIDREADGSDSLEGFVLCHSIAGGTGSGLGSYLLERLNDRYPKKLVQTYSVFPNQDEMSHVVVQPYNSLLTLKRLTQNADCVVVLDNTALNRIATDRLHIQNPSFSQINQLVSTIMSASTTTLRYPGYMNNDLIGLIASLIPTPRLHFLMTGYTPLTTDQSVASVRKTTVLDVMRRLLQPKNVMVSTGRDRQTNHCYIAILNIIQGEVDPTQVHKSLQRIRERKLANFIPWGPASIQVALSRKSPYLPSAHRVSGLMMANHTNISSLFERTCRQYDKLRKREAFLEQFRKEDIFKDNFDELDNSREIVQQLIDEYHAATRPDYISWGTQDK

What was measured:
Experiment in all cases: affinity purification with mass spectrometry; Flag immunoprecipitation (anti-Flag antibody, Protein G Sepharose) from metaphase-arrested Xenopus CSF egg extracts expressing 2xFlag-huWdr8 constructs from added mRNA; 23 °C; washes TBS-T and TBS; dimethyl labelling against control IgG pull-down
2xFlag-196/197AA (human) = biological target: T1, 2xFlag-196/197AA (human) (UniProt Q9P2S5)
T1 sequence: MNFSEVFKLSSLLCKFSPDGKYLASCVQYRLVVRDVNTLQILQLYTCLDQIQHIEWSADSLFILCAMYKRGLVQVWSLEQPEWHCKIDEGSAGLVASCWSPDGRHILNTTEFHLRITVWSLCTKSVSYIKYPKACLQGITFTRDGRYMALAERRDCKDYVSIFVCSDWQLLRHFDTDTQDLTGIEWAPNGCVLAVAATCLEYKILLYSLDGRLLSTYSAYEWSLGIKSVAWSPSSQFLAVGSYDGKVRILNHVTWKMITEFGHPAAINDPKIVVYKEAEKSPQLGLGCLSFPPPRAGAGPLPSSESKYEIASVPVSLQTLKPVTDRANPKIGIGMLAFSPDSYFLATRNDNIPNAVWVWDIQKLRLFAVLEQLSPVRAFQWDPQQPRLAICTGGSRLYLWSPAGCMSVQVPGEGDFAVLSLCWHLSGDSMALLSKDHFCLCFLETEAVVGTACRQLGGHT

2xFlag-359/360AA (human) = biological target: T2, 2xFlag-359/360AA (human) (UniProt Q9P2S5)
T2 sequence: T1 sequence with A196W, A197D, W359A, D360A

[1] = biological target: T3, 2xFlag-huWdr8 wild-type (human) (UniProt Q9P2S5)
T3 sequence: T1 sequence with A196W, A197D

binding (2xFlag-196/197AA (human))	binding (2xFlag-359/360AA (human))	binding [1]	Substance
binds	binds	binds	γ-tubulin (from UniProt P23330 1-451)
–	–	no binding	kinesin-14
binds	binds	binds	Nedd1
no binding	no binding	binds	SSX2IP
